Results on one substance are retold here after paper PMC4686425.

Amino acid sequences for entries named in this document (tags omitted).
UniProt P38873: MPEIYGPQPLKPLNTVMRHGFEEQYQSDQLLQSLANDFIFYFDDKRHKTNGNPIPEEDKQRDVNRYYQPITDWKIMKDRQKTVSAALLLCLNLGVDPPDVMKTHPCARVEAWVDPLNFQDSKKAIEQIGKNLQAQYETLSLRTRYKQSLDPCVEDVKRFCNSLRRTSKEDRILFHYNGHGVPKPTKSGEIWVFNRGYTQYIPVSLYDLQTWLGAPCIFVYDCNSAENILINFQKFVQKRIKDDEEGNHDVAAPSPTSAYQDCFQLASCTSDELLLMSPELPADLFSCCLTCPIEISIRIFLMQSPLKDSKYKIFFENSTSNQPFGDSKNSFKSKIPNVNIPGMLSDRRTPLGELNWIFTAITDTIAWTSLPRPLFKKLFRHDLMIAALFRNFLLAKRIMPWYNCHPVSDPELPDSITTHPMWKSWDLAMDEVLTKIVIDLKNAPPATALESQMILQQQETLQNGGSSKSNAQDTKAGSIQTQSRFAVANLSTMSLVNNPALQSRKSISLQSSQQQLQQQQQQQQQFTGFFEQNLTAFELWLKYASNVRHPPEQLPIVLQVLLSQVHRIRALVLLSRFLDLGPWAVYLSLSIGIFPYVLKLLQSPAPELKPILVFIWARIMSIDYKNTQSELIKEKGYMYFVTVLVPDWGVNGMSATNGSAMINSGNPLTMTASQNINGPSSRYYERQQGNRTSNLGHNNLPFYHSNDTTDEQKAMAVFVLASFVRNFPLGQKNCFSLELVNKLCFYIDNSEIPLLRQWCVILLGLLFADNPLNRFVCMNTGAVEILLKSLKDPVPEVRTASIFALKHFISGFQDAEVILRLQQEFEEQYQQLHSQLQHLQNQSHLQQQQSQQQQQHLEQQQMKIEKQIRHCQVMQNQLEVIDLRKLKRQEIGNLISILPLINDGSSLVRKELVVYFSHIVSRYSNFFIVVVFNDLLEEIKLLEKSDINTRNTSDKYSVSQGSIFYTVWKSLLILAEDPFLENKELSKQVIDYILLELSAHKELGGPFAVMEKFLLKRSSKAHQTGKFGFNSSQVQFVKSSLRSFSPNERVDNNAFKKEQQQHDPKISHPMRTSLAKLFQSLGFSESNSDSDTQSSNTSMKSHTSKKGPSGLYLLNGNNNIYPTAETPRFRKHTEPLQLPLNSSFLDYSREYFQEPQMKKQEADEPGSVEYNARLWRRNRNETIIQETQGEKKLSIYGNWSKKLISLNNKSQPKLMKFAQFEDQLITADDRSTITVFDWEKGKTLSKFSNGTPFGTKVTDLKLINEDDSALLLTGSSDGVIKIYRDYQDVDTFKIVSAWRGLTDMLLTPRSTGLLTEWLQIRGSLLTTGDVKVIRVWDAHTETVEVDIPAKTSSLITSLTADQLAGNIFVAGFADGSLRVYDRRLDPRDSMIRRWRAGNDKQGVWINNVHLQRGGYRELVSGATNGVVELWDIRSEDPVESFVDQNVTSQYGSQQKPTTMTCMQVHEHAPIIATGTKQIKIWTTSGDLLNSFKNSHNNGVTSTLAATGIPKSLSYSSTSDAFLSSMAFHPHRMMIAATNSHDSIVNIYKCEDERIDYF
UniProt P35169: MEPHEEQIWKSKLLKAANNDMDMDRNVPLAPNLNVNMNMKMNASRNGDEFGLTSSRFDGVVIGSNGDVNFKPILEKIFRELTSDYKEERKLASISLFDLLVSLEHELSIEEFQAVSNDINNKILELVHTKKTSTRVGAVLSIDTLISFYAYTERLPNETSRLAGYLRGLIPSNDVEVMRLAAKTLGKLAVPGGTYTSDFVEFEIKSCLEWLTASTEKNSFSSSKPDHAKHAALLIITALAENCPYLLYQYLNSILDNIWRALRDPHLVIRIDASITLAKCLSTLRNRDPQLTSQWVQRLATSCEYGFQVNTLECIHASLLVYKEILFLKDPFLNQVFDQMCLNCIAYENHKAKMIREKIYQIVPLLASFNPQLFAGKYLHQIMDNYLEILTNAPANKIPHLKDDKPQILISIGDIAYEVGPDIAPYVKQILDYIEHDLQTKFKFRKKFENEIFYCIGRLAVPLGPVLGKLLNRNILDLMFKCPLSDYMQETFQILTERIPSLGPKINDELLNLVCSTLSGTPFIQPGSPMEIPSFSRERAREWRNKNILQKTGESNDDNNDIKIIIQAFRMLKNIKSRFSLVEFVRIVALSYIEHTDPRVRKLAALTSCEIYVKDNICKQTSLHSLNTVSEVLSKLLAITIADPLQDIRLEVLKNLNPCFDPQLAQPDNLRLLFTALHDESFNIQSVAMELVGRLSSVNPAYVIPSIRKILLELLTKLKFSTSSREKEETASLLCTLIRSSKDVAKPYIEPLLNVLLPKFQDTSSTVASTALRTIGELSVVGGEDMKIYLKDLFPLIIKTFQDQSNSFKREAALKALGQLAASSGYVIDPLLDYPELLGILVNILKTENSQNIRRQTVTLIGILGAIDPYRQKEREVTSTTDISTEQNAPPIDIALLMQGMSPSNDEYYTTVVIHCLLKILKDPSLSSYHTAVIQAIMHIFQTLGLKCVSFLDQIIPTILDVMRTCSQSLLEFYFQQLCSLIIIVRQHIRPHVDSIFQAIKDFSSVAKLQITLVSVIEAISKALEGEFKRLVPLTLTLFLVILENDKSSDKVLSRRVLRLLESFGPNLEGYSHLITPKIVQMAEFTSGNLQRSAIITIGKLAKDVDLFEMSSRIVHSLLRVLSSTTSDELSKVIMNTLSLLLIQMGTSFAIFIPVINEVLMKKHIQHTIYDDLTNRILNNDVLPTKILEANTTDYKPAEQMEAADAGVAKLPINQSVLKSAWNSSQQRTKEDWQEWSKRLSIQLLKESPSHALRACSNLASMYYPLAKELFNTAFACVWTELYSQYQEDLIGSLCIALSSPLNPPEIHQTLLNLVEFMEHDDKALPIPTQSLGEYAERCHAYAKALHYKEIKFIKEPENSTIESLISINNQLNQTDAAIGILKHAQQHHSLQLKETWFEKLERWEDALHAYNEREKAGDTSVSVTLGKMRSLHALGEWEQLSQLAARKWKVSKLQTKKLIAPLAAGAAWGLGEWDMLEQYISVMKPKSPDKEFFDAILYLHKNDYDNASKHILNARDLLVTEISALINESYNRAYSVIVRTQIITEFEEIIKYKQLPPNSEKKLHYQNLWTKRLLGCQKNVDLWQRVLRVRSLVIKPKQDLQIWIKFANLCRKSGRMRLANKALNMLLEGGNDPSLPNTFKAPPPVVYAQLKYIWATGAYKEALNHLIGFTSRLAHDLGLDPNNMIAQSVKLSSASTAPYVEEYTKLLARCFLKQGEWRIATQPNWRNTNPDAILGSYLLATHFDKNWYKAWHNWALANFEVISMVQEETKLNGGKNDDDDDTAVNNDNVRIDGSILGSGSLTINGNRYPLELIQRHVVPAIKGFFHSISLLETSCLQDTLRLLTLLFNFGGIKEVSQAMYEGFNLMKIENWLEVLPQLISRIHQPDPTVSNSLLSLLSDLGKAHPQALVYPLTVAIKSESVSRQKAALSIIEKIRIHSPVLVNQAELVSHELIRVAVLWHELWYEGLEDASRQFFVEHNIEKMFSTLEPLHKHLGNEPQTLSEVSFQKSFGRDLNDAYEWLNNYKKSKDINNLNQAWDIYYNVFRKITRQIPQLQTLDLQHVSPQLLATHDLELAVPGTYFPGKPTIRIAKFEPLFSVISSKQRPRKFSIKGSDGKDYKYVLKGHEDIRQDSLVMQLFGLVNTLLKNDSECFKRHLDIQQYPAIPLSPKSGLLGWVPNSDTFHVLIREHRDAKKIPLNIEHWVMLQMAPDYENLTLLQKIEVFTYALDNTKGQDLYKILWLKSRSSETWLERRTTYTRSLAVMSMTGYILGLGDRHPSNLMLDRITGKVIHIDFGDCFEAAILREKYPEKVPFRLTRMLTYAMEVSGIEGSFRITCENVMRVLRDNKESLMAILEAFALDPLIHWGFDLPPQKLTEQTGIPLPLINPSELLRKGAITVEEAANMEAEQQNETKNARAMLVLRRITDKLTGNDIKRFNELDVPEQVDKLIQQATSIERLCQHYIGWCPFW

In the experiment the target is Kog1-3xFlag (S. cerevisiae) (UniProt P38873). In words: affinity purification with mass spectrometry; anti-Flag antibody on protein G Dynal beads, clarified lysate of yeast expressing Kog1-3xFlag, 30 min at 4°C; lysis buffer 50 mM HEPES pH 7.1, 150 mM KCl, 0.5% Tween 20; SDS gel stained with colloidal blue, bands excised for mass spectrometry; cells in SD medium, 5 min glucose starvation or 5 min 0.4 M KCl.

Results are given in words; binding and its absence hold for the method and conditions named. Binding seen in cells or lysates may run through a third protein. These calls come from enrichment with a bait or labelling near it, and not all partners need be listed.

As for Tor1 (from UniProt P35169 1-2470), the binding result is given as “binds”.
